Consider 26 substances from patent publication US20230414775A1 (priority 2021, published 2023).

A short description of the series: general procedure: solution-phase peptide synthesis.

With “(S)-5-(4-aminophenyl)-4-(2-((1R,3R)-1-ethoxy-3-((2S,3S)—N-hexyl-2-((R)-1-(2-hydroxyethyl)piperidine-2-carboxamido)-3-methylpentanamido)-4-methylpentyl) thiazole-4-carboxamido)-2,2-dimethylpentanoic acid (PA-11)”, the step yield (coupling step) is listed as 15% yield.
Under “coupling step”, “Rac-((R)-4-(2-((1S,3S)-1-acetoxy-3-((2R,3R)—N-hexyl-3-methyl-2-((S)-1-methylpiperidine-2-carboxamido)pentanamido)-4-methylpentyl)thiazole-4-carboxamido)-5-(4-aminophenyl)-2,2-dimethylpentanoyl)glycine (PB-10 aka PA29)” showed a step yield of 11% yield.
Regarding “(S)-4-(2-((1R,3R)-1-acetoxy-3-((2S,3S)-2-((R)-1-(((4-((S)-2-((S)-2-amino-3-methylbutanamido)-5-ureidopentanamido)benzyl)oxy)carbonyl)-2-methylpyrrolidine-2-carboxamido)-N-hexyl-3-methylpentanamido)-4-methylpentyl)thiazole-4-carboxamido)-5-(4-amino-3-fluorophenyl)-2,2-dimethylpentanoic acid (10-4a)”, the step yield (coupling step, from 10-2) was 20% yield from 10-2%.
Substance “(S)-4-(2-((1R,3R)-1-acetoxy-3-((2S,3S)-2-((R)-1-(carboxymethyl)piperidine-2-carboxamido)-N-hexyl-3-methylpentanamido)-4-methylpentyl)thiazole-4-carboxamido)-5-(4-aminophenyl)-2,2-dimethylpentanoic acid (PA-13 aka PA10)” came in with a step yield (coupling step, from 4-5) of 14% yield.
For the substance “Rac-(R)-5-(4-((carboxymethyl)amino)phenyl)-4-(2-((1S,3S)-1-ethoxy-3-((2R,3R)—N-hexyl-3-methyl-2-((S)-1-methylpiperidine-2-carboxamido)pentanamido)-4-methylpentyl)thiazole-4-carboxamido)-2,2-dimethylpentanoic acid (PB-5 aka PA30)”, where the note is “coupling step”, the step yield worked out at 21% yield.
Substance “(S)-4-(2-((1R,3R)-1-acetoxy-3-((2S,3S)-2-((R)-1-(((4-((S)-2-((S)-2-amino-3-methylbutanamido)-5-ureidopentanamido)benzyl)oxy)carbonyl)-2-methylpyrrolidine-2-carboxamido)-N-hexyl-3-methylpentanamido)-4-methylpentyl)thiazole-4-carboxamido)-5-(4-hydroxyphenyl)-2,2-dimethylpentanoic acid (10-4b)” showed a step yield (coupling step) of 20% yield.
Regarding “(S)-4-(2-((1R,3R)-3-((2S,3S)-2-((R)-1-(2-aminoethyl)piperidine-2-carboxamido)-N-hexyl-3-methylpentanamido)-1-ethoxy-4-methylpentyl)thiazole-4-carboxamido)-5-(4-hydroxyphenyl)-2,2-dimethylpentanoic acid (PA-10 aka PA4)”, under “coupling step”, the step yield is on record as 67% yield.
For “(4S)-5-(4-aminophenyl)-4-(2-((3S,6R,8R)-3-((S)-sec-butyl)-5-hexyl-13,14-dihydroxy-6-isopropyl-1-((R)-1-methylpiperidin-2-yl)-1,4,10-trioxo-9-oxa-2,5,11-triazatetradecan-8-yl)thiazole-4-carboxamido)-2,2-dimethylpentanoic acid (PC-5 aka PA26)”, the step yield (coupling step) is 25% yield.
Where the note is “late stage modification step”, “2-[(1R,3R)-1-(acetyloxy)-3-[(2S,3S)-2-{[(2R)-1-(2-{[(tert-butoxy)carbonyl]amino}acetyl)-2-methylpyrrolidin-2-yl]formamido}-N-hexyl-3-methylpentanamido]-4-methylpentyl]-1,3-thiazole-4-carboxylic acid (1-9a)” gave a step yield of 87% yield.
For “Rac-(R)-4-(2-((1S,3S)-1-acetoxy-3-((2R,3R)—N-hexyl-3-methyl-2-((S)-1-methylpiperidine-2-carboxamido)pentanamido)-4-methylpentyl)thiazole-4-carboxamido)-acid (PB-8 aka PA19)”, under “coupling step”, the step yield was determined as 37% yield.
Turning to “(RS)-4-(2-((1R,3R)-1-acetoxy-3-((2S,3S)—N-hexyl-3-methyl-2-((R)-1-methylpiperidine-2-carboxamido)pentanamido)-4-methylpentyl)thiazole-4-carboxamido)-dimethylpentanoic acid (PB-9 aka PA20)”, the step yield (coupling step) is 29% yield.
Substance “(4S)-4-({2-[(1R,3R)-1-(acetyloxy)-3-[(2S,3S)-2-{[(2R)-1-[({4-[(2S)-2-[(2S)-2-[1-(4-{2-azatricyclo[10.4.0.0^4,9]hexadeca-1(12),4(9),5,7,13,15-hexaen-10-yn-2-yl}-4-oxobutanamido)-3,6,9,12-tetraoxapentadecan-15-amido]-3-methylbutanamido]-5-(carbamoylamino)pentanamido]phenyl}methoxy)carbonyl]-2-methylpyrrolidin-2-yl]formamido}-N-hexyl-3-methylpentanamido]-4-methylpentyl]-1,3-thiazol-4-yl}formamido)-5-(4-amino-3-fluorophenyl)-2,2-dimethylpentanoic acid” showed a conjugation yield (conjugation step) of 17% yield.
Consider “Rac-(R)-4-(2-((1S,3S)-1-acetoxy-3-((2R,3R)—N-hexyl-3-methyl-2-((S)-1-methylpiperidine-2-carboxamido)pentanamido)-4-methylpentyl)thiazole-4-carboxamido)-acid (PB-4 aka PA16)”, for which, where the note is “coupling step”, the step yield was found to be 14% yield.
Under “coupling step, from 1-9e”, “(4S)-4-({2-[(1R,3R)-1-(acetyloxy)-3-[(2S,3S)-2-{[(2R)-1-[2-(2-aminoethoxy)ethyl]piperidin-2-yl]formamido}-N-hexyl-3-methylpentanamido]-4-methylpentyl]-1,3-thiazol-4-yl}formamido)-5-(4-aminophenyl)-2,2-dimethylpentanoic acid (PA-14 aka PA11)” yielded a step yield of 57% yield from 1-9e.
For the substance “(S)-4-(2-((1R,3R)-1-acetamido-3-((2S,3S)—N-hexyl-3-methyl-2-((R)-1-methylpiperidine-2-carboxamido)pentanamido)-4-methylpentyl)thiazole-4-carboxamido)-acid (PC-7)”, the step yield (coupling step, from 9-7) stood at 34% yield from 9-7%.
The substance “(S)-4-(2-((17R,19R)-1-amino-19-isopropyl-20-(((R)-1-methylpiperidine-2-carbonyl)-L-isoleucyl)-2,15-dioxo-5,8,11,16-tetraoxa-3,14,20-triazahexacosan-17-yl)thiazole-4-carboxamido)-5-(4-amino-3-fluorophenyl)-2,2-dimethylpentanoic acid (16-7)” came in with a step yield (coupling step, from 16-6) of 55% yield from 16-6%.
In the case of “(4S)-4-({2-[(1R,3R)-1-(acetyloxy)-3-[(2S,3S)—N-hexyl-2-{[(2R)-1-(2-hydroxyethyl)-2-methylpyrrolidin-2-yl]formamido}-3-methylpentanamido]-4-methylpentyl]-1,3-thiazol-4-yl}formamido)-5-(4-aminophenyl)-2,2-dimethylpentanoic acid (PA-7 aka PA6)”, the step yield (coupling step, from 1-9c) was 28% yield from 1-9c.
In the case of “Rac-(R)-5-(4-((carboxymethyl)amino)phenyl)-4-(2-((1S,3S)-3-((2R,3R)—N-hexyl-3-methyl-2-((S)-piperidine-2-carboxamido)pentanamido)-1-(3-hydroxypropoxy)-4-methylpentyl)thiazole-4-carboxamido)-2,2-dimethylpentanoic acid (PC-2 aka PA23)”, for the setting “coupling step”, the step yield was found to be 5.5% yield.
For the setting “coupling step”, “Rac-(R)-4-(2-((1S,3S)-1-acetoxy-3-((2R,3R)—N-hexyl-3-methyl-2-((S)-1-methylpiperidine-2-carboxamido)pentanamido)-4-methylpentyl)thiazole-4-carboxamido)-acid (PB-7 aka PA18)” showed a step yield of 2% yield.
Turning to “Ethyl 2-[(1R,3R)-3-[(2S,3S)-2-{[(2R)-1-(2-{[(tert-butoxy)carbonyl]amino}acetyl)-2-methylpyrrolidin-2-yl]formamido}-N-hexyl-3-methylpentanamido]-1-hydroxy-4-methylpentyl]-1,3-thiazole-4-carboxylate (1-5a)”, the step yield (coupling step) worked out at 80% yield.
With “(S)-5-(4-(2-aminoacetamido)phenyl)-4-(2-((1R,3R)-1-ethoxy-3-((2S,3S)—N-hexyl-2-((R)-1-(2-hydroxyethyl)piperidine-2-carboxamido)-3-methylpentanamido)-4-methylpentyl) thiazole-4-carboxamido)-2,2-dimethylpentanoic acid (PA-12 aka PA9)”, the step yield (coupling step) is 30% yield.
Under “late stage modification step”, “(S)-4-(2-((1RS,3RS)-1-acetoxy-3-((2SR,3SR)-2-((R)-1-(2-aminoethyl)-2-methylpyrrolidine-2-carboxamido)-N-hexyl-3-methylpentanamido)-4-methylpentyl)thiazole-4-carboxamido)-5-(4-hydroxyphenyl)-2,2-dimethylpentanoic acid (PA-6 aka PA5)” came in with a step yield of 75% yield.
As for “(4S)-4-({2-[(1R,3R)-1-(acetyloxy)-3-[(2S,3S)—N-hexyl-2-{[(2R)-1-(2-hydroxyethyl)piperidin-2-yl]formamido}-3-methylpentanamido]-4-methylpentyl]-1,3-thiazol-4-yl}formamido)-5-(4-aminophenyl)-2,2-dimethylpentanoic acid (PA-8 aka PA7)”, the step yield (coupling step, from 1-9d) was 31% yield from 1-9d.
“Rac-(R)-4-(2-((1S,3S)-1-ethoxy-3-((2R,3R)—N-hexyl-3-methyl-2-((S)-1-methylpiperidine-2-carboxamido)pentanamido)-4-methylpentyl)thiazole-4-carboxamido)-acid (PB-3 aka PA15)”: the step yield (coupling step) was determined as 15% yield.
With “(S)-5-(4-(2-((RS)-2-amino-4-carboxybutanamido)acetamido)phenyl)-4-(2-((1R,3R)-1-ethoxy-3-((2S,3S)—N-hexyl-3-methyl-2-((R)-1-methylpiperidine-2-carboxamido)pentanamido)-4-methylpentyl)thiazole-4-carboxamido)-2,2-dimethylpentanoic acid (14-2)”, the step yield (coupling step, from 5-4b) is given as 13% yield from 5-4b.
In the case of “Rac-(R)-5-(4-amino-3-fluorophenyl)-4-(2-((1S,3S)-3-((2R,3R)—N-hexyl-3-methyl-2-((S)-1-methylpiperidine-2-carboxamido)pentanamido)-1-(3-hydroxypropoxy)-4-methylpentyl)thiazole-4-carboxamido)-2,2-dimethylpentanoic acid (PC-1 aka PA22)”, the step yield (coupling step) came to 13% yield.
